Assay results as given in patent publication US6335164.

By UniProt entry, the sequences of proteins in these tests, tags left out. Residues count along the entry.
UniProt P0A7G6, 2-353: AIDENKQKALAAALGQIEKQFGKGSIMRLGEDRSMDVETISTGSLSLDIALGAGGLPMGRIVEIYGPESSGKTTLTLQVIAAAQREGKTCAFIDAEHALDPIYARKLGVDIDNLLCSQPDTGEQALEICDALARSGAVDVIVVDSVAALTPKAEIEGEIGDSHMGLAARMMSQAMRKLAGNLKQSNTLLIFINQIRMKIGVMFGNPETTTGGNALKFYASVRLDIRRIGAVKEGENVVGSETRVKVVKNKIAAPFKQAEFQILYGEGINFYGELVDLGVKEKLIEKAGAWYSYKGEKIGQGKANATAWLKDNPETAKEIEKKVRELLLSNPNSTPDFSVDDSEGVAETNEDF

Biological target: RecA (UniProt P0A7G6)
Experiment: activity assay
Details: 5'-biotin; homologous pairing with php53B; specificity and reactivity enhanced by heterologous probes; GTPgammaS, Mg2+, 37 C; purified recombinant protein; protein details: Boehringer-Mannheim; label: biotin; single-stranded DNA

## CCTTGCCGTCCCAAGCAATGGATGATTTGA [p53 homologous probe 30]
  activity on this sequence: active
